Experimental data: US6750197B1, “Activators of endothelial nitric oxide synthase” (Rensselaer Polytechnic Institute, priority 1996, dated 2004)
These are yes or no findings as the source states them, for the method shown. Some entries that bind do so weakly or less than the wild type.

Biological target: T1, recombinant bovine ENOS (purified from overexpressing E. coli) (bovine) (UniProt P29473)
T1 sequence (looked up): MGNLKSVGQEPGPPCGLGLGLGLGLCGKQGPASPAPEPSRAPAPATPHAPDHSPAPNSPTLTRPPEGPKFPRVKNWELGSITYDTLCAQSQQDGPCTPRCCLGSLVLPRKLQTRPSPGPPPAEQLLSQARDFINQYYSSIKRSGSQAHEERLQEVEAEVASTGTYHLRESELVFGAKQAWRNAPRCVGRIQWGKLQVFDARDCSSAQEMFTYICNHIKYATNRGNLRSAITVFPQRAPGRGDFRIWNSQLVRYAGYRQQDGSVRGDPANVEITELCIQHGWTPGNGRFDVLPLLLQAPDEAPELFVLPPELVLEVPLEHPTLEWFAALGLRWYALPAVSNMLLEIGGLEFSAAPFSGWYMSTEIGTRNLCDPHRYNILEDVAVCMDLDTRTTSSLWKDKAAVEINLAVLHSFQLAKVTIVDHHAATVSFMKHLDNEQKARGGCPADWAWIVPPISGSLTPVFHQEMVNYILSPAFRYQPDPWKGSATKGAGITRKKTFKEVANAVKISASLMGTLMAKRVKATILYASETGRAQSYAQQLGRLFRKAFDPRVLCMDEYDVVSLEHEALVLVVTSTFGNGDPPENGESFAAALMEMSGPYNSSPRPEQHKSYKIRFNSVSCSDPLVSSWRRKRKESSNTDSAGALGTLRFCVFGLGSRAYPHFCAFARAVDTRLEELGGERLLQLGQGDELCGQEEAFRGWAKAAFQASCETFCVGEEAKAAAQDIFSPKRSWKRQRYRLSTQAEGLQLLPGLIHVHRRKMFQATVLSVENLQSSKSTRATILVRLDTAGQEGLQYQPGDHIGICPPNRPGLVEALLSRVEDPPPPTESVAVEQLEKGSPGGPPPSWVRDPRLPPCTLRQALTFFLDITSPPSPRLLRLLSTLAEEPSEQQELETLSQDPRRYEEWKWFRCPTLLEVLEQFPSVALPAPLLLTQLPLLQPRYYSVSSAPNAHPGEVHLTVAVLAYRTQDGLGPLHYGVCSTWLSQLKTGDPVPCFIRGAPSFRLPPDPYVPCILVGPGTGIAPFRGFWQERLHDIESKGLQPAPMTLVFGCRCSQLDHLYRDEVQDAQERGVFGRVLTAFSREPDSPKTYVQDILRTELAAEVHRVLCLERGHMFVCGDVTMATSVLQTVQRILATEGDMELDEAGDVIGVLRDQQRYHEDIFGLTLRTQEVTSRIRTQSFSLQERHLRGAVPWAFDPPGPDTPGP
Assay: competition with CAM binding to ENOS

binding: binds
Binder: SSWRRKRKESS [BO58-08]
